Values of other authors in patent US8679552B2, “Acne vulgaris treatment regimen” (priority 2008, dated 2014).
At least one structure is not confirmed: it was looked up by name or label, or the drawing left a doubt.

Molecular target: T1, type-1 5 alpha-reductase (Homo sapiens, UniProt P18405)
T1 sequence (P18405 1-259): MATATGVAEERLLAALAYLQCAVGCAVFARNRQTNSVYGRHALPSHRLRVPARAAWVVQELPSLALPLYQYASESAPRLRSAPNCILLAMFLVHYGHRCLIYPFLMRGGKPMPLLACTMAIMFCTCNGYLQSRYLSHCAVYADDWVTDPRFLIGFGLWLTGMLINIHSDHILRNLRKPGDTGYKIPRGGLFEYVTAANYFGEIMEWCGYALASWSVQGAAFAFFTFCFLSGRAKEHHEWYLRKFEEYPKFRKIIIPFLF

Compound: Cc1cc2c(C(C)C)c(O)c(O)c(C=O)c2c(O)c1-c1c(C)cc2c(C(C)C)c(O)c(O)c(C=O)c2c1O [gossypol]
- inhibition of type-1 5 alpha-reductase: potent inhibitors
